PubChem BioAssay AID1224826 | NIAID | 2016
In all, the deposit lists about 17,000 reagents; shown is a part drawn at random. About 1,110 of all reagents (6.6%) count as active. 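Active means lowered or raised reporter signal; replicate intensities are raw and not normalised per plate.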 A number with no mark means an inactive call.

Test: 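Genes that change LPS-induced Tnf promoter activity in mouse macrophages when knocked down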 (primary screen)
System: RAW264.7 G9 macrophages from mouse bearing reporters for p65 (GFP) and the Tnf promoter (mCherry)
Knock-down reagent: siRNA pool against mouse genes, 100 nM
Duration: 16 h of LPS stimulation, after 2 days of siRNA transfection
Treatment: bacterial lipopolysaccharide (Salmonella minnesota R595), 10 ng/ml
Read-out: 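Imaged Tnf reporter mCherry in nuclei, minus background, normalised per plate to the median and expressed as robust z-scores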
Reading the numbers: Tnf reporter robust z-score: higher = stronger Tnf promoter reporter signal after LPS; Tnf reporter intensity: higher = stronger Tnf promoter reporter signal
Rule for the call: 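a well counts as active at a score of -1.3 or below (Tlr4 knock-down control median) or above 3 (raised signal); controls and wells holding fewer than 50 cells are excluded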
Meaning of the calls: active = Tnf reporter clearly lowered or raised; inactive = no clear change in Tnf reporter

target | Tnf reporter robust z-score | fewer than 50 cells in well | Tnf reporter intensity, replicate 1 | Tnf reporter intensity, replicate 2
Ms4a13 (GeneID 73466) | 1.93 | enough cells in well | 349 | 141
Nrros (GeneID 224109) | -0.73 | enough cells in well | 130 | 93.9
Clpb (GeneID 20480) | 1.61 | enough cells in well | 154 | 159
Prg2 (GeneID 19074) | -1.07 | enough cells in well | 72.1 | 93.5
Ccl24 (GeneID 56221) | 0.12 | enough cells in well | 261 | 212
Ptcra (GeneID 19208) | -0.81 | enough cells in well | 195 | 127
Usp13 (GeneID 72607) | 0.95 | enough cells in well | 199 | 219
Pgrmc2 (GeneID 70804) | -0.46 | enough cells in well | 218 | 154
Cyp11b2 (GeneID 13072) | -0.62 | enough cells in well | 179 | 167
Ly6e (GeneID 17069) | -0.9 | enough cells in well | 129 | 105
Fam185a (GeneID 330050) | -0.15 | enough cells in well | 202 | 173
Cited1 (GeneID 12705) | 0.28 | enough cells in well | 266 | 231
Uhrf2 (GeneID 109113) | -0.6 | enough cells in well | 190 | 174
Igsf1 (GeneID 209268) | – | fewer than 50 cells per well; well left out of calls | 102 | 59
Capn2 (GeneID 12334) | -0.92 | enough cells in well | 85.4 | 132
Cnot6 (GeneID 104625) | – | fewer than 50 cells per well; well left out of calls | 42 | 27.9
Atp10b (GeneID 319767) | -0.12 | enough cells in well | 159 | 196
Nipal4 (GeneID 214112) | 0.4 | enough cells in well | 203 | 216
Cdh1 (GeneID 12550) | -0.58 | enough cells in well | 219 | 148
Ifi30 (GeneID 65972) | -1.42 (active) | enough cells in well | 130 | 92.6
Rpl23 (GeneID 65019) | -0.37 | enough cells in well | 101 | 123
Mcm6 (GeneID 17219) | -0.33 | enough cells in well | 280 | 145
Cish (GeneID 12700) | -0.97 | enough cells in well | 156 | 149
Nkx3-1 (GeneID 18095) | 0.77 | enough cells in well | 308 | 227
Ahdc1 (GeneID 230793) | 0.91 | enough cells in well | 262 | 208
Rln3 (GeneID 212108) | -0.92 | enough cells in well | 98.4 | 78
Pabpc1 (GeneID 18458) | – | fewer than 50 cells per well; well left out of calls | 145 | 114
Rgs12 (GeneID 71729) | 1.04 | enough cells in well | 405 | 80.1
Znrf2 (GeneID 387524) | 1.8 | enough cells in well | 166 | 239
Elf5 (GeneID 13711) | -0.64 | enough cells in well | 164 | 198
Zdhhc13 (GeneID 243983) | – | fewer than 50 cells per well; well left out of calls | 84.3 | 33.4
Padi3 (GeneID 18601) | – | fewer than 50 cells per well; well left out of calls | 108 | 131
Errfi1 (GeneID 74155) | -1.15 | enough cells in well | 168 | 45
Srsf4 (GeneID 57317) | 2.16 | enough cells in well | 181 | 168
Oog4 (GeneID 242737) | – | fewer than 50 cells per well; well left out of calls | 212 | 185
Cds2 (GeneID 110911) | 0.05 | enough cells in well | 128 | 234
Vezt (GeneID 215008) | 0.08 | enough cells in well | 253 | 152
Ptrh2 (GeneID 217057) | -0.59 | enough cells in well | 120 | 142
Lalba (GeneID 16770) | 0.05 | enough cells in well | 203 | 48.2
Vmn1r81 (GeneID 171244) | 0.34 | enough cells in well | 132 | 88.4
Ywhah (GeneID 22629) | – | fewer than 50 cells per well; well left out of calls | 146 | 126
Obp1a (GeneID 18249) | -0.53 | enough cells in well | 211 | 76.7
Klhl23 (GeneID 277396) | -0.86 | enough cells in well | 74.3 | 114
Myo1h (GeneID 231646) | -0.77 | enough cells in well | 159 | 83.8
Col19a1 (GeneID 12823) | 1.36 | enough cells in well | 342 | 319
Pcmtd2 (GeneID 245867) | 0.26 | enough cells in well | 186 | 165
Lasp1 (GeneID 16796) | -1.23 | enough cells in well | 131 | 63.8
Fbxw4 (GeneID 30838) | 0.5 | enough cells in well | 233 | 307
Rab5if (GeneID 67388) | – | fewer than 50 cells per well; well left out of calls | 114 | 48.4
Pole3 (GeneID 59001) | -1.58 (active) | enough cells in well | 66.5 | 54.3
Zfp846 (GeneID 244721) | – | fewer than 50 cells per well; well left out of calls | 119 | 34
Nox1 (GeneID 237038) | 4.05 (active) | enough cells in well | 349 | 433
Galntl5 (GeneID 67909) | -0.63 | enough cells in well | 187 | 171
Zbtb33 (GeneID 56805) | -0.9 | enough cells in well | 143 | 181
Exoc8 (GeneID 102058) | -0.21 | enough cells in well | 205 | 161
Mims2 (GeneID 67017) | – | fewer than 50 cells per well; well left out of calls | 158 | 54
Synj2bp (GeneID 24071) | 3.92 (active) | enough cells in well | 308 | 186
Pitpnb (GeneID 56305) | 0.04 | enough cells in well | 139 | 124

Targets above whose gene name starts with F or f:
target | Tnf reporter robust z-score | fewer than 50 cells in well | Tnf reporter intensity, replicate 1 | Tnf reporter intensity, replicate 2
Fam185a (GeneID 330050) | -0.15 | enough cells in well | 202 | 173
Fbxw4 (GeneID 30838) | 0.5 | enough cells in well | 233 | 307
